Experimental data from patent US10919888B2, “Benzyl amine-containing heterocyclic compounds and compositions useful against mycobacterial infection” (priority 2015, dated 2021).
Some entries share one result that the patent states for a list of compounds. At least one structure is not confirmed: it was looked up by name or label, or the drawing left a doubt.

Test system: mice
Experiment: In vivo tolerability / maximum tolerated dose in mice

Compound: Cc1cn2c(C(=O)NCc3ccc(N4CCN(c5ccc(C(F)(F)F)cn5)CC4)c(F)c3)c(C)nc2s1 [ND-11543]
- MTD (maximum tolerated dose): ≥ 250 mg/kg
